Measurements as given in the supplement of paper PMC10849652.
This is one part of the list.

Protein sequences, listed by entry. Tags and fused reporters are not part of them. Lines headed by an entry give the natural chain unless they say otherwise; changes in a name come on top.
UniProt Q99442: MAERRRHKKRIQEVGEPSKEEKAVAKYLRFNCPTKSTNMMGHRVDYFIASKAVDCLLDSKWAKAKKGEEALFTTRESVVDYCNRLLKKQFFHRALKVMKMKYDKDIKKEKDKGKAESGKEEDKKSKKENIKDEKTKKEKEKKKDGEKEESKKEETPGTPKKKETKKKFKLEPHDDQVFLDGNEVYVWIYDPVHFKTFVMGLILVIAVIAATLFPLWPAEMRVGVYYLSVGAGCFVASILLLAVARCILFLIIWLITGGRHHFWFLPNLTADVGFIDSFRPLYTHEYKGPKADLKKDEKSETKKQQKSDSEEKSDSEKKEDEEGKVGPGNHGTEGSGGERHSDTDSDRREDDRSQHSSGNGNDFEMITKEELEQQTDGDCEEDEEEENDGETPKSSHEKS
UniProt Q96EB6: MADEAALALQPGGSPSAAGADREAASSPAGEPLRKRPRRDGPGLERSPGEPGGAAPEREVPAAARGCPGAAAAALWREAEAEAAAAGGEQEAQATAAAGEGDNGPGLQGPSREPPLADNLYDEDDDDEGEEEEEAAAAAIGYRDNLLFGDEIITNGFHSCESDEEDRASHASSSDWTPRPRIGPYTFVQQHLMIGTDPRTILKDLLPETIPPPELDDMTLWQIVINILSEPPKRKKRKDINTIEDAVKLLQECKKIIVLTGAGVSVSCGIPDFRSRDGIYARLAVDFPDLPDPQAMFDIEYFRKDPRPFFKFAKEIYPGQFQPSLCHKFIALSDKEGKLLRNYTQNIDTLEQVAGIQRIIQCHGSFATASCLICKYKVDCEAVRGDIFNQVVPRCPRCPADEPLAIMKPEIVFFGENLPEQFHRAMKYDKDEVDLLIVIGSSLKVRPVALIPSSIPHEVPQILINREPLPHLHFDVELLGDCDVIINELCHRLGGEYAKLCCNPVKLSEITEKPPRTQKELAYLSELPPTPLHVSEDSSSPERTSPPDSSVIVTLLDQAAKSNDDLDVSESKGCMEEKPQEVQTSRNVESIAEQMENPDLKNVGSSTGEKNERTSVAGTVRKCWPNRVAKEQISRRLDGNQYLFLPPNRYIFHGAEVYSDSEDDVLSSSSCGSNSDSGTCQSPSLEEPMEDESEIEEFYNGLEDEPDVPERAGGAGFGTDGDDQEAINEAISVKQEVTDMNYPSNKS
UniProt P49908, whole entry, looked up: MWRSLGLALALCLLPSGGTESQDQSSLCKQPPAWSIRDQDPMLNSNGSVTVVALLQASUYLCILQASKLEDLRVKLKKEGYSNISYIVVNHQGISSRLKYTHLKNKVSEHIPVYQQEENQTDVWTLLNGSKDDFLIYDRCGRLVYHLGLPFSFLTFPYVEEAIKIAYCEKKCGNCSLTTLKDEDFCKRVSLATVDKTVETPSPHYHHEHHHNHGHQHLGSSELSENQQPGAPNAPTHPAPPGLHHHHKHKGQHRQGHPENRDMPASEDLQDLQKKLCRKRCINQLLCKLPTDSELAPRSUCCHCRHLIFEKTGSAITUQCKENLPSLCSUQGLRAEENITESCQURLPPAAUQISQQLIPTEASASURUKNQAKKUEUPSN
UniProt Q9Y3B4: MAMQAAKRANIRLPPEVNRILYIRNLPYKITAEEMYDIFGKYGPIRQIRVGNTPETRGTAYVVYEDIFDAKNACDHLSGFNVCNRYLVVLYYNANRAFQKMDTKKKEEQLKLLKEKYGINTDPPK
UniProt Q8IXJ6: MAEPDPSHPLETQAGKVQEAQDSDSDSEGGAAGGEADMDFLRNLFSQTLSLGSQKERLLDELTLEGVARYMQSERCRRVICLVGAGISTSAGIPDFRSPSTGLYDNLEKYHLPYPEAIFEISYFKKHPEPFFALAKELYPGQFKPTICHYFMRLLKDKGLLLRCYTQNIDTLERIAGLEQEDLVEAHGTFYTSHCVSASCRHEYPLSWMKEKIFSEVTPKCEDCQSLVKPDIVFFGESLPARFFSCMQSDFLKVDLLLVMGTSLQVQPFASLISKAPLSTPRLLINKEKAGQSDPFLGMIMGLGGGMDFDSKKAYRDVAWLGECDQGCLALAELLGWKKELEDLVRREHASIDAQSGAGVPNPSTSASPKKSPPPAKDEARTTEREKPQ
UniProt Q9UQ13: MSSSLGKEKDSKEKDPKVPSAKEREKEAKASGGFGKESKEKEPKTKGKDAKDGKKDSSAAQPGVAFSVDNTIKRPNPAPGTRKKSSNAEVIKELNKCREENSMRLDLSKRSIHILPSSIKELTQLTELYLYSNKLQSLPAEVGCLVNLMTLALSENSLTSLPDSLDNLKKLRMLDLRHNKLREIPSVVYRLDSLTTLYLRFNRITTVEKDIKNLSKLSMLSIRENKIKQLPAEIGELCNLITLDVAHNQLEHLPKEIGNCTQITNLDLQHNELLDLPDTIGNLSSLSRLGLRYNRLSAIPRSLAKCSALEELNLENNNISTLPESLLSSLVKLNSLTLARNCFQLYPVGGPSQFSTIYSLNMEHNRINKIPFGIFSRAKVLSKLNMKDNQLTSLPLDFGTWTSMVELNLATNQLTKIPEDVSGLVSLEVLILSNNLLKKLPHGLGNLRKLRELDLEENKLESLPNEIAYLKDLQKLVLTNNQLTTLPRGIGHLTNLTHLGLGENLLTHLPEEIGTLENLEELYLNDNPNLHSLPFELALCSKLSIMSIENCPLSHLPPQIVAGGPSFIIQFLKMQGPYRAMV
UniProt Q9H0K1: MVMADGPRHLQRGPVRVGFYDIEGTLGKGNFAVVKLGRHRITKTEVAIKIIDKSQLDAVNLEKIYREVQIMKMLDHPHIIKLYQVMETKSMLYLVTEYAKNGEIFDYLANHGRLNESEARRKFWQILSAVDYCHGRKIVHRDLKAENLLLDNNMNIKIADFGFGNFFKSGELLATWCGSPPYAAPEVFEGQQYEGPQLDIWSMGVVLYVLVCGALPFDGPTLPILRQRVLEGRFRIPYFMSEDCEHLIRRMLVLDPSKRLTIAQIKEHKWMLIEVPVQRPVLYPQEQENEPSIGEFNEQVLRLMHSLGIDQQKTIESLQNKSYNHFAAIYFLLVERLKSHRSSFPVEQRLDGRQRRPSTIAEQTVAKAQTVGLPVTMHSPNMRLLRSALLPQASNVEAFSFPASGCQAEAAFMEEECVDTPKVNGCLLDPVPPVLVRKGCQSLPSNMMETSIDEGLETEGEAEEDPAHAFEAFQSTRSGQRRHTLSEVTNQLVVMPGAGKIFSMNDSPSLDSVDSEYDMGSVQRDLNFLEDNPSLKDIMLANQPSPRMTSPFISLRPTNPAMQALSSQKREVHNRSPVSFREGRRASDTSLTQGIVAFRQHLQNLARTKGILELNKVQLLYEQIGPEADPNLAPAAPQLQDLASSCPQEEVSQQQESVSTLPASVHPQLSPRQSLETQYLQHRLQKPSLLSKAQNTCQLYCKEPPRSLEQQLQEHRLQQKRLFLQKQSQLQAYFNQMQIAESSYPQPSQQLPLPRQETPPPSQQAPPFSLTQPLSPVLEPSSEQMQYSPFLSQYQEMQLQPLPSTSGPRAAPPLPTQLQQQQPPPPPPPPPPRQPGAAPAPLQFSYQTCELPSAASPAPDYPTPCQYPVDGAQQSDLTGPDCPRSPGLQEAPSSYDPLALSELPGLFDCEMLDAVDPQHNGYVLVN
UniProt A1X283: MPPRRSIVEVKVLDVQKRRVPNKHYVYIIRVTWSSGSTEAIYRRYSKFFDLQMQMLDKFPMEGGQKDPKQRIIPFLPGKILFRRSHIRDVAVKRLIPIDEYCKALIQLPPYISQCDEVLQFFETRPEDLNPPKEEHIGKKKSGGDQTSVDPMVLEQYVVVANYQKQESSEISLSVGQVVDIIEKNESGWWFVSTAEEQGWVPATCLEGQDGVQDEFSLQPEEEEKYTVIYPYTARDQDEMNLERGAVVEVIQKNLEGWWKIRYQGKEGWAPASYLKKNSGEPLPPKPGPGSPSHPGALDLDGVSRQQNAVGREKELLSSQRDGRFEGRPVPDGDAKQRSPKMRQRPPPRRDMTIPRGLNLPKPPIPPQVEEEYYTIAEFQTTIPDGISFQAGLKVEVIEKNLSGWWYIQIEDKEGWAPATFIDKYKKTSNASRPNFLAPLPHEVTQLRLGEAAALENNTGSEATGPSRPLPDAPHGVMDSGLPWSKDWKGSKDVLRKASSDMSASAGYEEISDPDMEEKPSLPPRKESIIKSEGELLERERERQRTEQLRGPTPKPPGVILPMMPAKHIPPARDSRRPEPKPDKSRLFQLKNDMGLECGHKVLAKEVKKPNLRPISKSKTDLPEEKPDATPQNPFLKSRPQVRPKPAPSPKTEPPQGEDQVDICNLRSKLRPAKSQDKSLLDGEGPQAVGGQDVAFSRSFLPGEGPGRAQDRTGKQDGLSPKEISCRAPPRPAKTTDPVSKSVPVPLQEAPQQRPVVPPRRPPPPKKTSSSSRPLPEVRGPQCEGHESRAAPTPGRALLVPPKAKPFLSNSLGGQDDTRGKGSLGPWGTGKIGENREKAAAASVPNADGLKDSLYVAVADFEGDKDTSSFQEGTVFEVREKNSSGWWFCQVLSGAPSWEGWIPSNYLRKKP
UniProt Q587I9: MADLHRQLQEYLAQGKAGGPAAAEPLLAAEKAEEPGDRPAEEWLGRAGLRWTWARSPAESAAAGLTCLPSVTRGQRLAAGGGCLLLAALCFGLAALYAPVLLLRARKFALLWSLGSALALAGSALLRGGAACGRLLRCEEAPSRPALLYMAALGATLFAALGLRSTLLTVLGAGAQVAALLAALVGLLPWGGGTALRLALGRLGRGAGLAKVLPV
UniProt Q9Y3L3: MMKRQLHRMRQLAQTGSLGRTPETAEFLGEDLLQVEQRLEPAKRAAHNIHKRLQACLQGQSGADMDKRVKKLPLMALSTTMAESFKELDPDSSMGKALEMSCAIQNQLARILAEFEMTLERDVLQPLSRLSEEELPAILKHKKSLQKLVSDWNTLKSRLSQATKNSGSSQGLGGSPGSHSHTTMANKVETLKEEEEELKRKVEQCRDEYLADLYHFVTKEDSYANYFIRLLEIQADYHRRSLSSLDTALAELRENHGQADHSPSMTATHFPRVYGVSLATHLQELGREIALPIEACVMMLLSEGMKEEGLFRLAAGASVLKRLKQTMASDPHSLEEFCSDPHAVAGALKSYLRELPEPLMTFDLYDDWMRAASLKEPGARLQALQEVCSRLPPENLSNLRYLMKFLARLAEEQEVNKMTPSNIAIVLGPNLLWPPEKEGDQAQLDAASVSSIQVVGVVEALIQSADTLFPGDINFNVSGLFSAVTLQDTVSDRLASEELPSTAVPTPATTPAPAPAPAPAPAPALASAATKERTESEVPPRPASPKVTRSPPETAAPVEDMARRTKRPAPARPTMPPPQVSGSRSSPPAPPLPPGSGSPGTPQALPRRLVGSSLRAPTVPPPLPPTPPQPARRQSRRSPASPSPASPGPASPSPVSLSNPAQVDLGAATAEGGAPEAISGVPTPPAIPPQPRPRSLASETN
UniProt Q96ES7: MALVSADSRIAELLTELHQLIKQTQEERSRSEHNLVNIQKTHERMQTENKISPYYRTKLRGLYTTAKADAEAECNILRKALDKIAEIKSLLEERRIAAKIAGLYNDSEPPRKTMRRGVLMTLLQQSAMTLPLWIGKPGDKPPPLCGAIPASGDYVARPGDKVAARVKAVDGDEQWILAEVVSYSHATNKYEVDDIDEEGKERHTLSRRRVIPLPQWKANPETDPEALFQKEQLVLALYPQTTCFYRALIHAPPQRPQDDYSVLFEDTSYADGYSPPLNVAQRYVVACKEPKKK
UniProt Q8IUQ4: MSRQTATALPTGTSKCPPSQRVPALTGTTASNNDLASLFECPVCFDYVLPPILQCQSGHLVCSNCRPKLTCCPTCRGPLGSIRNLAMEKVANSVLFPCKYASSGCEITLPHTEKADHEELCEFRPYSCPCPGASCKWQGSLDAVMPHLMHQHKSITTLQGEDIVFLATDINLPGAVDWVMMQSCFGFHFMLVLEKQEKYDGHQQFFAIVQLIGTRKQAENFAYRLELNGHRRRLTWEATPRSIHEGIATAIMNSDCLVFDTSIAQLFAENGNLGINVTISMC
UniProt P29353: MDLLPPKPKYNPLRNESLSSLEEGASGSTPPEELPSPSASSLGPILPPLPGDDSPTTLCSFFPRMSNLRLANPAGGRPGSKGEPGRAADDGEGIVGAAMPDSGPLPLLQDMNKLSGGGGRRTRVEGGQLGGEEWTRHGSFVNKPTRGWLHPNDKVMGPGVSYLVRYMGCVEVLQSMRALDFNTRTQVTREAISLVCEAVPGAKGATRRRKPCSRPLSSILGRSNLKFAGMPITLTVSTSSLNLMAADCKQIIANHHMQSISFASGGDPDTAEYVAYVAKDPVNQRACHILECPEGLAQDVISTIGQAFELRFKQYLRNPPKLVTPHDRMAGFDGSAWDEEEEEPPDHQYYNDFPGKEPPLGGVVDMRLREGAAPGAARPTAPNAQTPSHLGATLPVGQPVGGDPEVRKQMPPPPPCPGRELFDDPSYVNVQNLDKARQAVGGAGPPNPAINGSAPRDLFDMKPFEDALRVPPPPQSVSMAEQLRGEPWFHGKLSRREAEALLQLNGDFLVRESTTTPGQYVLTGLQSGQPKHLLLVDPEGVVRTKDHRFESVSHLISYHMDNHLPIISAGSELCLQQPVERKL

Columns and labels:
Experiment in all cases: log2 fold change, soluble protein after heating vs DMSO (PISA); higher = thermal stabilisation; K562 cells, 10 uM, 30 min; active = over 0.2 and 3.5 SD of the protein, either way, in both replicates (recomputed)
[1] = compound: C1=CC=C(C=C1)[C@H](COC2=CC3=C(C=C2)NC(=O)N3)NC(=O)C4=CC=CN(C4=O)CC5=CC(=C(C=C5)F)F
Method in brief: (§1)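 Soluble protein was defined as the supernatant after 21,000xg for 90 min. It came from K562 cells at 2×10^6 cells/mL given 10 μM compound for 30 min, heated in aliquots for 3 min across 48°C-58°C, pooled, and extracted in PBS with 0.5% NP-40 at 4°C, and was quantified by TMTpro 16plex LC-MS/MS with equalised channel sums. Thermal stability against control samples, from duplicates, is reported as log2 fold change.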

[2] = compound: CC1=C(SC2=C1C(=N[C@H](C3=NN=C(N32)C)CC(=O)N)C4=CC=C(C=C4)Cl)C
Method in brief: as §1

[3] = compound: CC1=C2C(=CC=C1)N=C(N(C2=O)C3=CC=CC=C3C)CN4C=NC5=C(N=CN=C54)N
Method in brief: as §1

[4] = compound: Cc1sc2c(c1C)C(c1ccc(Cl)cc1)=N[C@@H](CC(=O)OC(C)(C)C)c1nnc(C)n1-2
Method in brief: as §1

[5] = compound: c1ccc([C@@H]2C[C@H]2NC2CCNCC2)cc1
Method in brief: as §1

Measured: log2 fold change

SF1 (UniProt H7C0N4)
inactive: [1] 0.031 | [2] 0 | [3] 0.056 | [4] -0.025 | [5] 0.162

SEC62 (UniProt Q99442)
inactive: [1] 0.067 | [2] 0.006 | [3] 0.073 | [4] -0.072 | [5] 0

SIRT1 (UniProt Q96EB6)
inactive: [1] -0.005 | [2] 0.022 | [3] 0.067 | [4] 0.029 | [5] -0.025

SF3A2 (UniProt Q15428)
inactive: [1] -0.029 | [2] -0.018 | [3] 0.02 | [4] 0.017 | [5] 0.005

SHMT1 (UniProt P34896)
inactive: [1] 0.015 | [2] 0.01 | [3] 0.034 | [4] -0.028 | [5] 0.021

SIN3A (UniProt Q96ST3)
inactive: [1] -0.08 | [2] -0.063 | [3] -0.046 | [4] 0 | [5] 0.077

SIKE1 (UniProt Q9BRV8)
inactive: [1] 0.001 | [2] 0.056 | [3] 0.066 | [4] 0.048 | [5] -0.066

SERPINB6, A0A087X1N8
inactive: [1] 0.007 | [2] 0.006 | [3] -0.047 | [4] 0.011 | [5] 0.016

SH3GLB2 (UniProt Q9NR46)
inactive: [1] -0.029 | [2] 0.064 | [3] 0.029 | [4] 0.004 | [5] -0.063

SEPTIN5 (UniProt G3XAH0)
inactive: [1] 0.002 | [2] -0.014 | [3] 0.061 | [4] -0.043 | [5] -0.031

SELENOP (UniProt P49908)
inactive: [1] -0.105

SGPL1 (UniProt O95470)
inactive: [1] 0.041 | [2] -0.014 | [3] 0.005 | [4] 0.049 | [5] -0.004

SERPINA7 (UniProt P05543)
inactive: [1] -0.014 | [2] -0.001 | [3] 0.1 | [4] 0.12 | [5] 0.128

SELENOK (UniProt Q9Y6D0)
inactive: [1] -0.061 | [2] -0.061 | [3] 0.092 | [4] -0.005 | [5] -0.118

SFPQ (UniProt P23246)
inactive: [1] 0.042 | [2] -0.104 | [3] -0.067 | [4] 0.06 | [5] 0.022

SETD3 (UniProt Q86TU7)
inactive: [1] -0.017 | [2] 0.018 | [3] 0.061 | [4] 0.021 | [5] -0.005

SERPINF2 (UniProt P08697)
inactive: [1] -0.006 | [2] -0.114 | [3] 0.151 | [4] -0.035 | [5] 0.106

SF3B6 (UniProt Q9Y3B4)
inactive: [1] -0.024 | [2] -0.04 | [3] 0.098 | [4] 0.007 | [5] -0.027

SFSWAP isoform 2 (UniProt Q12872)
inactive: [1] -0.117 | [2] -0.041 | [3] 0.062 | [4] 0.08 | [5] 0.085

SF1 isoform 6 (UniProt Q15637)
inactive: [1] 0.039 | [2] 0.16 | [3] 0.157 | [4] -0.017 | [5] -0.279

SEPHS2 (UniProt Q99611)
inactive: [1] -0.014 | [2] 0.06 | [3] -0.049 | [4] -0.054 | [5] 0.05

SFXN4 (UniProt Q6P4A7)
inactive: [1] 0.012 | [2] -0.011 | [3] 0.104 | [4] -0.015 | [5] 0.055

SEH1L isoform 1 (UniProt Q96EE3)
inactive: [1] -0.003 | [2] 0.06 | [3] -0.003 | [4] -0.014 | [5] 0.017

SIRT2 (UniProt Q8IXJ6)
inactive: [1] -0.075 | [2] 0.107 | [3] 0.105 | [4] 0.093 | [5] -0.016

SHROOM2 (UniProt Q13796)
inactive: [1] 0.105 | [2] 0.102 | [3] 0.103 | [4] -0.008 | [5] -0.072

SKA3 (UniProt Q8IX90)
inactive: [1] 0.058 | [2] -0.137 | [3] -0.035 | [4] 0.164 | [5] 0.114

SEPTIN9 (UniProt Q9UHD8)
inactive: [1] 0.009 | [2] 0.041 | [3] 0.033 | [4] -0.008 | [5] 0.001

SHOC2 (UniProt Q9UQ13)
inactive: [1] -0.009 | [2] 0.034 | [3] 0.113 | [4] -0.049 | [5] -0.071

SEPTIN4 isoform 4 (UniProt O43236)
inactive: [1] -0.035 | [2] 0.086 | [3] -0.197 | [4] -0.104 | [5] -0.015

SGPP1 (UniProt Q9BX95)
inactive: [1] -0.105 | [2] 0.023 | [3] 0.099 | [4] 0.106 | [5] 0.074

SIK2 (UniProt Q9H0K1)
inactive: [1] -0.072

SH3PXD2B (UniProt A1X283)
inactive: [1] 0.07 | [2] 0.029 | [3] 0.001 | [4] -0.038 | [5] -0.046

SEC61G (UniProt P60059)
inactive: [1] 0.046

SH3BGRL (UniProt O75368)
inactive: [1] -0.003 | [2] 0.093 | [3] 0.062 | [4] -0.108 | [5] 0.026

SESN2 (UniProt P58004)
inactive: [1] -0.03 | [2] -0.031 | [3] 0.067 | [4] 0.066 | [5] -0.028

SEPTIN7 (UniProt Q16181)
inactive: [1] -0.038 | [2] 0.027 | [3] -0.027 | [4] -0.039 | [5] -0.011

SERPINB8 (UniProt P50452)
inactive: [1] 0.02 | [2] -0.018 | [3] -0.104 | [4] 0.111 | [5] 0.1

SETMAR (UniProt Q53H47)
inactive: [1] 0.001 | [2] 0.096 | [3] 0.033 | [4] -0.031 | [5] -0.02

SF1 isoform 5 (UniProt Q15637)
inactive: [1] -0.012 | [2] 0.024 | [3] -0.013 | [4] -0.026 | [5] 0.031

SF3B3 (UniProt Q15393)
inactive: [1] 0.008 | [2] 0.025 | [3] 0.037 | [4] 0 | [5] -0.014

SFT2D3 (UniProt Q587I9)
inactive: [1] -0.151 | [2] -0.068 | [3] -0.093 | [4] 0.004 | [5] 0.02

SH3BP1 (UniProt Q9Y3L3)
inactive: [1] 0.009 | [2] 0.043 | [3] 0.043 | [4] -0.007 | [5] 0.02

SGF29 (UniProt Q96ES7)
inactive: [1] 0 | [2] 0.018 | [3] 0.104 | [4] -0.012 | [5] -0.021

SIAH1 isoform 2 (UniProt Q8IUQ4)
inactive: [1] 0.138 | [2] 0.174 | [3] 0.136 | [4] -0.044 | [5] 0.053

SFXN5 (UniProt Q8TD22)
inactive: [1] -0.079 | [2] 0.024 | [3] -0.11 | [4] 0.007 | [5] -0.061

SEC61A2 (UniProt Q9H9S3)
inactive: [1] 0 | [2] 0.047 | [3] -0.055 | [4] -0.048 | [5] 0.03

SEPTIN8 (UniProt Q92599)
inactive: [1] 0.007 | [2] 0.028 | [3] 0.021 | [4] -0.007 | [5] 0.018

SEPTIN2 isoform 2 (UniProt Q15019)
inactive: [1] 0.005 | [2] 0.015 | [3] 0.037 | [4] -0.004 | [5] 0.026

SEL1L3 (UniProt Q68CR1)
inactive: [1] -0.025 | [2] -0.071 | [3] 0.031 | [4] 0.163 | [5] 0.065

SHKBP1 (UniProt Q8TBC3)
inactive: [1] 0.003 | [2] 0.086 | [3] -0.095 | [4] 0.016 | [5] 0.015

SERPINC1 (UniProt P01008)
inactive: [1] -0.031 | [2] -0.055 | [3] 0.077 | [4] 0.099 | [5] 0.156

SHC1 isoform 6 (UniProt P29353)
inactive: [1] -0.011 | [2] 0.037 | [3] 0.007 | [4] 0.009 | [5] 0.042

SHMT2 (UniProt P34897)
inactive: [1] 0.012 | [2] 0.003 | [3] 0.025 | [4] -0.006 | [5] 0.009

SIAE (UniProt Q9HAT2)
inactive: [1] -0.035 | [2] -0.011 | [3] 0.21 | [4] 0.073 | [5] 0.035

SEC61B (UniProt P60468)
inactive: [1] -0.021 | [2] -0.015 | [3] -0.032 | [4] 0.002 | [5] 0.075
